Among the data in PubChem BioAssay AID2685 (National Center for Advancing Translational Sciences (NCATS), 2010) are cell number change and AC50 values, retold here.

Some of the results follow. Shown are side measurements of this screen, not its main read-out; they come without a call. Compounds called inactive in the main read-out are mostly missing here. The note in brackets gives the kind of curve behind each potency; many fits are weak.

A short description of this assay: qHTS Assay for Lipid Storage Modulators in Drosophila S3 Cells.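 For cell number change: cells counted by Cell Tracker Red CMTPX staining in the red channel.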 Conditions: BODIPY lipid droplet fluorescence, 18-24 h; for cell number change: measured here: cell count max response, cells fed with added oleic acid. In outline:
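Drosophila S3 cells loaded with oleic acid (400 uM, as added) and compounds at several concentrations; lipid droplets imaged by 488-nm laser-scanning cytometry, 500–530 nm intensity and object ratio to cell channel. Percent activity normalized to 20 uM Triacsin C.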

Where [1] appears, read: measured here: lipid fluorescence (Fed channel) AC50, cells fed with added oleic acid.
Setting [2] is: measured here: cell number channel AC50, cells fed with added oleic acid.

Turning to `CCn1c(CNC(=O)C23CC4CC(CC(C4)C2)C3)nnc1SCC(=O)Nc1nnc(C)s1`, the cell number change came out at 0.623%. The AC50 (commonly the midpoint of the concentration-response curve, whichever way the signal moves) under setting [1] was 18.4 µM [rising, single point].

`Cc1nnc(SCCN2CCOCC2)n1-c1cccc(Cl)c1`: the cell number change is -2%. In addition, the AC50 under setting [1] is 16.4 µM [falling, partial curve, poor fit].

For `Cc1ccc2c(c1)c1c(n2CC(O)Cn2c(C)nc3ccccc32)/C(=N\O)CCC1` (stereo unspecified), the cell number change was -97.3%. Besides, the AC50 under setting [2] was 29.1 µM [falling, single point].

For `COc1ccccc1CNS(=O)(=O)CC12CCC(CC1=O)C2(C)C` (stereo unspecified), the cell number change is 5.98%. The AC50 under setting [1] is 8.2 µM [rising, partial curve].

As to `COc1ccccc1CNC(=O)CCS(=O)(=O)c1ccc2c(c1)CCN2C(C)=O`, the cell number change came out at 8.4%. In addition, under setting [1], the AC50 was 6.51 µM [rising, single point].

As to `Cc1cccc(NC(=O)N2C3CCCC2CC(NC(=O)C(C)(C)C)C3)c1` (stereo unspecified), under setting [2], the AC50 is 6.51 µM [falling, partial curve, poor fit].

Consider `S=c1[nH]c2ccc(Cl)cc2s1`, for which the cell number change is -39.1%. Further, the AC50 under setting [2] was 0.146 µM [falling, full curve]. Moreover, the AC50 under setting [1] was 0.116 µM [falling, full curve].

With `CC(C)COC(=O)n1c(=O)oc2cc(S(=O)(=O)N3CCCCC3)ccc21`, the AC50 under setting [1] is 5.8 µM [falling, full curve, poor fit].

Turning to `Cc1nn(-c2ccccc2)c(C)c1NC(=O)COC(=O)c1ccc(O)cc1O`, the cell number change stood at 17%. Moreover, the AC50 under setting [2] is 6.51 µM [rising, partial curve].

`O=C(CN1CCN(c2cnn(-c3ccccc3)c(=O)c2Cl)CC1)NC1CCS(=O)(=O)C1` (stereo unspecified): the AC50 was 6.51 µM [falling, partial curve, poor fit] under setting [2] and 0.00461 µM [rising, full curve, poor fit] under setting [1].

For `CCn1c2ccccc2c2cc(/C=N/NC(=O)c3cccc(C)c3)ccc21`, the cell number change was -17.6%. Moreover, the AC50 under setting [1] was 0.58 µM [rising, full curve].

`COc1ccc(N2CC(C(=O)Nc3nnc(Cc4ccccc4)s3)CC2=O)cc1` (stereo unspecified): the cell number change is -2.86%. Besides, the AC50 under setting [1] is 6.51 µM [falling, single point].

In the case of `COCCCNC(=O)Cn1ccc(NC(=O)OCc2ccccc2)nc1=O`, the cell number change turned out to be 14.3%. Moreover, under setting [1], the AC50 is 29.1 µM [rising, single point].

For `CCn1nc(C)c(/C=N/NC(=O)Cn2nc(C)cc2C)c1C`, the cell number change came out at 126%. Further, the AC50 under setting [2] is 29.1 µM [rising, single point]. Further, the AC50 under setting [1] is 7.31 µM [rising, partial curve].

On to `Cc1ccccc1C(=O)N1CCC(C(=O)Nc2cccc(S(=O)(=O)N3CCCCC3)c2)CC1`, for which the cell number change is -41.4%. Also, the AC50 under setting [2] is 9.2 µM [falling, partial curve, poor fit]. The AC50 under setting [1] was 16.4 µM [falling, partial curve].

Take `Cc1ccc(CNC(=O)c2ccc3c(=O)n(CCCN4CCCC4=O)c(=S)[nH]c3c2)cc1`: the cell number change was found to be 80.5%. Further, the half-maximal activity concentration (AC50) under setting [2] is 18.4 µM [rising, single point].

Turning to `CCOC(=O)N1CCN(C(=O)c2cc(COc3ccc(Cl)cc3OC)on2)CC1`, the cell number change was -32%. Moreover, under setting [2], the half-maximal activity concentration (AC50) is 10.3 µM [falling, partial curve, poor fit].

In the case of `Brc1ccc2ncnc(NCc3ccccc3)c2c1`, the cell number change was -19.1%. In addition, the AC50 under setting [1] is 3.26 µM [rising, partial curve].

Regarding `CCC(C)(NC=O)C(=O)Nc1c(C)cccc1C` (stereo unspecified), the cell number change stood at 4.03%. Also, the AC50 under setting [1] was 0.82 µM [rising, full curve, poor fit].

For the compound `CC(=O)Nc1ccc(NS(=O)(=O)c2cccc3ccccc23)cc1`, the cell number change was 75.4%. For the same compound, the AC50 under setting [2] was 1.46 µM [rising, full curve].

For `CC(NC(=O)CC1Sc2ccccc2NC1=O)c1ccccc1` (stereo unspecified), the cell number change was determined as 10.6%. Besides, the AC50 under setting [2] was 6.51 µM [rising, single point].

Regarding `COc1cccc(CN(C)C(=O)c2cc(-c3ccc(F)cc3)nc3ccccc23)c1`, the cell number change was -12.4%. In addition, the AC50 under setting [1] was 18.4 µM [falling, single point].

As for `O=C(CSc1ccc(Cl)cc1)N1CCCC1`, the cell number change was -47.8%. In addition, under setting [2], the half-maximal activity concentration (AC50) is 29.1 µM [falling, single point]. The AC50 under setting [1] is 16.4 µM [falling, single point].

`O=C1CC(/C=C/c2ccncc2)=Nc2ccccc2N1`: the AC50 under setting [2] was 6.51 µM [rising, single point].

On to `CCOC(=O)C1(Cc2ccc(Cl)cc2)CCN(C(=O)c2cscn2)CC1`, for which the cell number change was -15.8%. In addition, the AC50 under setting [1] was 0.0058 µM [falling, full curve, poor fit].

Turning to `COCc1cc(N2CCOCC2)nc(SCc2ccc(Cl)cc2)n1`, the AC50 under setting [1] is 0.058 µM [falling, full curve, poor fit].

In the case of `CC1CC(C)CN(C(=O)COC(=O)c2cc(S(=O)(=O)N3CCOCC3)ccc2F)C1` (stereo unspecified), the cell number change was determined as 100%. For the same compound, under setting [2], the AC50 is 14.6 µM [rising, partial curve].

In the case of `CC1CCN(S(=O)(=O)c2cccc(C(=O)N3CCN(c4ccc(F)cc4)CC3)c2)CC1`, the cell number change is -20.8%. Under setting [1], the AC50 is 29.1 µM [falling, single point].

Turning to `Cc1nc(C)c(C(=O)NNS(=O)(=O)c2ccc3ccccc3c2)s1`, the cell number change is -25.7%. Also, the AC50 under setting [2] was 5.17 µM [rising, single point]. For the same compound, the concentration at half-maximal activity (AC50) under setting [1] is 25.9 µM [falling, partial curve].

For the compound `O=C(NCCCn1ccnc1)C(F)(F)C(F)(F)C(=O)NCCCn1ccnc1`, the cell number change was -18.4%.

As for `CC(=O)Nc1cccc(NC(=O)CSc2nc(=O)n(CCN3CCOCC3)c3c2CCC3)c1`, the AC50 runs as follows: under setting [2], 2.31 µM [rising, partial curve]; under setting [1], 16.4 µM [rising, single point].

In the case of `COc1ccc(N2CCOCC2)c(NC(=O)c2cccs2)c1`, the cell number change is -11.9%. Under setting [1], the AC50 is 14.6 µM [falling, single point].

As to `COc1ccc(N2CCCn3c2nc2c3c(=O)n(Cc3ccc(C)cc3)c(=O)n2C)c(OC)c1`, the cell number change is -21%. In addition, the AC50 under setting [1] was 2.06 µM [falling, partial curve, poor fit].

Take `Cc1ccc2nc(SCC(=O)Nc3ccc(F)cc3F)nc(=O)n2c1`: the cell number change came out at 0.659%. The AC50 under setting [1] is 0.058 µM [falling, full curve, poor fit].

Take `CCOC(=O)c1cc(-c2ccccc2)n(CCC(=O)N2CCN(c3ccccc3OC)CC2)c1C`: the cell number change turned out to be 17.3%. Further, under setting [2], the AC50 was 3.66 µM [rising, partial curve]. Further, the concentration at half-maximal activity (AC50) under setting [1] was 2.59 µM [rising, partial curve].
